Measurements: US20040248806A1 (priority 2001, published 2004)

Assay: general procedure: Fmoc solid-phase peptide synthesis
Conditions: analytical HPLC and mass spectrometry

Substance | final HPLC purity (whole synthesis) | final HPLC purity (conjugation step)
RRLSYSRRRF | >95% | 
[Mpa](X1)RRLSYSRRRF-OH (C-terminus assumed; SMILES CC(C)C[C@H](NC(=O)[C@H](CCCNC(=N)N)NC(=O)[C@H](CCCNC(=N)N)NC(=O)CCSSCCNC(=O)[C@H]1O[C@@H](O[C@H]2C=C[C@H]3[C@H]4Cc5ccc(O)c6c5[C@@]3(CCN4C)[C@H]2O6)[C@H](O)[C@@H](O)[C@@H]1O)C(=O)N[C@@H](CO)C(=O)N[C@@H](Cc1ccc(O)cc1)C(=O)N[C@@H](CO)C(=O)N[C@@H](CCCNC(=N)N)C(=O)N[C@@H](CCCNC(=N)N)C(=O)N[C@@H](CCCNC(=N)N)C(=O)N[C@@H](Cc1ccccc1)C(=O)O) |  | >95%

Plain letter strings leave the end groups untold. The same purity stands for every peptide and may come from a single statement. Non-standard residues stand in square brackets, D forms with d. *: point of attachment. X1 = CN1CC[C@]23c4c5ccc(O)c4O[C@H]2[C@@H](O[C@@H]2O[C@H](C(=O)NCCS*)[C@@H](O)[C@H](O)[C@H]2O)C=C[C@H]3[C@H]1C5; Mpa = O=C(O)CCS
